Data as given in article PMC3978064.

Amino acid sequences for entries named in this document (tags omitted).
UniProt P12814: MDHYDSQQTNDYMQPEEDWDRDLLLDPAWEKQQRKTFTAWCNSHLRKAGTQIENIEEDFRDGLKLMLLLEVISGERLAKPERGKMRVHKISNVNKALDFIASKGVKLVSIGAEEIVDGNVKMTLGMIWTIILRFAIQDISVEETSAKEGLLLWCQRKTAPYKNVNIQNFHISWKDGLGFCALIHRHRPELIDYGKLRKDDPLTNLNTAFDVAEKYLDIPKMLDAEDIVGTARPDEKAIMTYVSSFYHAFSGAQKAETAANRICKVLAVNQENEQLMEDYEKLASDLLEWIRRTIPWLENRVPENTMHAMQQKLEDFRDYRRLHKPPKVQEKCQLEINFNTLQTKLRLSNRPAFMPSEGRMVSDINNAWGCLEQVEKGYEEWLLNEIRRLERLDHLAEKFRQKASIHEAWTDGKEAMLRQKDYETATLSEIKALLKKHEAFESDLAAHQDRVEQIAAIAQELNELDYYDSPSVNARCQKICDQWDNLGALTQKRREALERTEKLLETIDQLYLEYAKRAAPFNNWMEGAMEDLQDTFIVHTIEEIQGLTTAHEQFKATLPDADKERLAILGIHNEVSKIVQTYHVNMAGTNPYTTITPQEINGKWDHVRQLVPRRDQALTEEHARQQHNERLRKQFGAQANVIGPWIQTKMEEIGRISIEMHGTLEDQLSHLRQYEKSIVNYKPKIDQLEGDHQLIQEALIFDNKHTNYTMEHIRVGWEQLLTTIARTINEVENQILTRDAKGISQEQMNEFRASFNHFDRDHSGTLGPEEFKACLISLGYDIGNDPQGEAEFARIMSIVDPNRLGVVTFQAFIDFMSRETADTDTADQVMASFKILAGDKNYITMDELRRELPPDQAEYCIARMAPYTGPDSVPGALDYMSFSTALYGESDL

Molecular target: T1, recombinant analogue of lactaptin RL2 (human) (UniProt P07498)
T1 sequence: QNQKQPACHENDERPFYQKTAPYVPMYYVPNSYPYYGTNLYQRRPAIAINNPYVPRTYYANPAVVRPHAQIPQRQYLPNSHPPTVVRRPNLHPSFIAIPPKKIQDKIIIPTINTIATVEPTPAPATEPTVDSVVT
Assay: affinity purification with mass spectrometry; RL2 covalently immobilised on CH-Sepharose 4B (3 mg per mL); MCF-7 lysate in TBS (50 mM Tris pH 8.0, 150 mM NaCl) with 1% Triton X-100; washed with TBS; unique bands only in the fraction eluted by 300 mM NaCl, 20 mM Tris-HCl pH 7.5; control on non-modified Sepharose; bands cut from SDS-PAGE and identified by MALDI-TOF MS; only the target purified

binding	Substance
binds	α-actinin-1 (from UniProt P12814 1-892)
binds	α/β-tubulin (human) (complex)

No constants are given. Whether binding was seen depends on the method and setting. Binding seen in cells or lysates may run through a third protein. Here binding means that the protein was enriched with, or labelled near, the bait; the list need not be complete.
